PMC12667445, “Targeting RBM10‐Repressed RORB Activity in Liquid Condensates Inhibits Lysosomal Biogenesis and Neuroblastoma Progression via Affecting NF‐κB Signaling” (Advanced Science, 2025)
These are yes or no findings as the source states them, for the method shown. In cells and extracts the contact can be indirect.

Sequences of proteins named here, by UniProt entry; tags and fusion partners are left off. A change or cut given only in a name is not applied to a line headed by its entry.
UniProt P98175: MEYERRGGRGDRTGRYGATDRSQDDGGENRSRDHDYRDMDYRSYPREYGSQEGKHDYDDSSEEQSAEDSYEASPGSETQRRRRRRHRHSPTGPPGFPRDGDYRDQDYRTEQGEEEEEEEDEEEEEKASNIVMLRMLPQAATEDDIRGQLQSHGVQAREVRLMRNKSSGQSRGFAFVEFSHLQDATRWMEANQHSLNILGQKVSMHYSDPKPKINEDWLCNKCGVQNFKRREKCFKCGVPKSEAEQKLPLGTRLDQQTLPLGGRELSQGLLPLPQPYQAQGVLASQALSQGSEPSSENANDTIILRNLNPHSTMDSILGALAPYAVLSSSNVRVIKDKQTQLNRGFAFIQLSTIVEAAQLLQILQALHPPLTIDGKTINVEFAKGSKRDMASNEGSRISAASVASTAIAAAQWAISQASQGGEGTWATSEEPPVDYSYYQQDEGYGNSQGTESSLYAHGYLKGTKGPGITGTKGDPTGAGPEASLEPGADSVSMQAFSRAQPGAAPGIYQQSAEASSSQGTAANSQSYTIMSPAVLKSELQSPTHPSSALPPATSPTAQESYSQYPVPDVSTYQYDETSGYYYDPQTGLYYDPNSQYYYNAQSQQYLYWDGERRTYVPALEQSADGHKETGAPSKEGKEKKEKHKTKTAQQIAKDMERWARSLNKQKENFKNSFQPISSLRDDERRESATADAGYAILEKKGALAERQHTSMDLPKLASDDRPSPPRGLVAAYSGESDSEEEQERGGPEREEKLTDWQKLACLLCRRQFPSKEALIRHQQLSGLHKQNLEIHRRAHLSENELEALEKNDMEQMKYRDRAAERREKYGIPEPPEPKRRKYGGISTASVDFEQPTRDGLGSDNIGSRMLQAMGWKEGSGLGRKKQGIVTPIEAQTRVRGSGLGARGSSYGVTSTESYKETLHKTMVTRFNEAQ

Assays:
[1] = target: T1, RORB, BiFC construct (UniProt Q92753); test: split reporter; BiFC in SK-N-BE(2) cells; fluorescence within the nucleus
T1 sequence: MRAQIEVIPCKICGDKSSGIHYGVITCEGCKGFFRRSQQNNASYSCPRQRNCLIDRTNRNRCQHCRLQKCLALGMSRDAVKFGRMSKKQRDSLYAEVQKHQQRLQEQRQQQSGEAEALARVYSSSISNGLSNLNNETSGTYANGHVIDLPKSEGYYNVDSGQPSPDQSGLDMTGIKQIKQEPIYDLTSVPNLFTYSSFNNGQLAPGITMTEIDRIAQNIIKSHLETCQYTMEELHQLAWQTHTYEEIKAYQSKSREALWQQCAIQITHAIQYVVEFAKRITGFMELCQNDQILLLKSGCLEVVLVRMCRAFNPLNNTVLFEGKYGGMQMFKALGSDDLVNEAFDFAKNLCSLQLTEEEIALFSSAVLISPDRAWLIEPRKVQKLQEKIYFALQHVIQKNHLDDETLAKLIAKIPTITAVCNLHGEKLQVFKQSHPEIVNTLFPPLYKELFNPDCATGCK

[2] = target: RORB with mutation in AF2 domain, BiFC construct (UniProt Q92753); test: as above

Row | binding [1] | binding [2] | Substance
1 | no binding | – | RBM10 with mutation in RRM2 domain, BiFC construct (from UniProt P98175)
2 | – | no binding | RBM10, BiFC construct (from UniProt P98175 1-930)
